Data taken from paper doi:10.1101/2020.04.16.001255.
No constants are given. Whether binding was seen depends on the method and setting. Binding seen in cells or lysates may run through a third protein. Some binding calls cover weakened binding; strength is not graded here. Sequences can lack the tags named with a protein.

Sequences of proteins named here, by UniProt entry; tags and fusion partners are left off.
UniProt Q92993: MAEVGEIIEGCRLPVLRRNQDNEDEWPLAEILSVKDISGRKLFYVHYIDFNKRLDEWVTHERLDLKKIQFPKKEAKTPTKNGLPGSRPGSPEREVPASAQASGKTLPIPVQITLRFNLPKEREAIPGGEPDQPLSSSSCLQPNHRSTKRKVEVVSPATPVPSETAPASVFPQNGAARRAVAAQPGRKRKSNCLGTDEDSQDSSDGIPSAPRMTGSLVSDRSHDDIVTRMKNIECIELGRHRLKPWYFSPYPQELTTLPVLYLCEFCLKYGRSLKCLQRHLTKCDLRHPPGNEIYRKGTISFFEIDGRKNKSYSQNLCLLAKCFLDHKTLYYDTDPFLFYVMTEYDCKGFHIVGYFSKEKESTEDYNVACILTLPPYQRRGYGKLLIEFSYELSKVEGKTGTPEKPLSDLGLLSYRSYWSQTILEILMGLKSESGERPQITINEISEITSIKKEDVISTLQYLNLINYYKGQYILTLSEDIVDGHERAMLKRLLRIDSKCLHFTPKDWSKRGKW

Target: TIP60-HA (UniProt Q92993)
Assay: co-IP

binding: binds
B1: FE65-EGFP (protein, UniProt O00213 1-710)
chain: MSVPSSLSQSAINANSHGGPALSLPLPLHAAHNQLLNAKLQATAVGPKDLRSAMGEGGGPEPGPANAKWLKEGQNQLRRAATAHRDQNRNVTLTLAEEASQEPEMAPLGPKGLIHLYSELELSAHNAANRGLRGPGLIISTQEQGPDEGEEKAAGEAEEEEEDDDDEEEEEDLSSPPGLPEPLESVEAPPRPQALTDGPREHSKSASLLFGMRNSAASDEDSSWATLSQGSPSYGSPEDTDSFWNPNAFETDSDLPAGWMRVQDTSGTYYWHIPTGTTQWEPPGRASPSQGSSPQEESQLTWTGFAHGEGFEDGEFWKDEPSDEAPMELGLKEPEEGTLTFPAQSLSPEPLPQEEEKLPPRNTNPGIKCFAVRSLGWVEMTEEELAPGRSSVAVNNCIRQLSYHKNNLHDPMSGGWGEGKDLLLQLEDETLKLVEPQSQALLHAQPIISIRVWGVGRDSGRERDFAYVARDKLTQMLKCHVFRCEAPAKNIATSLHEICSKIMAERRNARCLVNGLSLDHSKLVDVPFQVEFPAPKNELVQKFQVYYLGNVPVAKPVGVDVINGALESVLSSSSREQWTPSHVSVAPATLTILHQQTEAVLGECRVRFLSFLAVGRDVHTFAFIMAAGPASFCCHMFWCEPNAASLSEAVQAACMLRYQKCLDARSQASTSCLPAPPAESVARRVGWTVRRGVQSLWGSLKPKRLGAHTP
